Publication PMC7862700
Some of the results follow. Construct or isoform of the protein are uncertain.

Target: T1, ELF2 (UniProt Q15723)
T1 sequence: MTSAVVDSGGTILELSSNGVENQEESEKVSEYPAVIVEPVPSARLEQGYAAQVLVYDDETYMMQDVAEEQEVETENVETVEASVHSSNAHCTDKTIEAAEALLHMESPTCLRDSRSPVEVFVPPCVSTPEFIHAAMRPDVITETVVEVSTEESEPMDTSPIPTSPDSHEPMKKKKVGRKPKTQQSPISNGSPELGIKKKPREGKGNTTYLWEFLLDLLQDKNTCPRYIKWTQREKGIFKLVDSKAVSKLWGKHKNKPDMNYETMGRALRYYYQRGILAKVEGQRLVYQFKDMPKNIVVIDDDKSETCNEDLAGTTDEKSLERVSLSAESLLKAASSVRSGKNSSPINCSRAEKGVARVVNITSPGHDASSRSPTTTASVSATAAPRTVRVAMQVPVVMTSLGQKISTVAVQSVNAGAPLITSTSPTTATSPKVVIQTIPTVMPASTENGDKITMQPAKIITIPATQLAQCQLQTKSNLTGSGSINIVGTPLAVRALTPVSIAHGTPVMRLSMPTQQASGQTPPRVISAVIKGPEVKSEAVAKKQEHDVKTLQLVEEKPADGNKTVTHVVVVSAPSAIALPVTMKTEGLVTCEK
Assay: DAPPL (digital affinity profiling via proximity ligation, sequencing)
Settings: 10 mM Tris-HCl pH 7.5, 50 mM NaCl, 1 mM DTT, 4% glycerol, room temperature, 30 min; GST-TFs on glutathione beads, 16-mer random dsDNA library, 0.1% …; high values mean tight binding; double strand, one strand shown; scale: fold enrichment (6-mer frequency, TF over GST control)

Sequence | binding signal
GGATGA | 0.996
ATGAGA | 0.788
TACCAG | 0.847
TCGGAC | 0.359
GACGCT | 0.77
GGCATG | 0.77
AAGAGT | 0.871
CAACAG | 0.898
AGTGTG | 0.683
CGCAGA | 0.739
CGAGCG | 0.862
TGAGAG | 0.545
GGCTGT | 0.779
GAGGTC | 0.552
GGAGCC | 0.311
TGAGTC | 0.191
AGTTGG | 0.482
TCAGTC | 0.576
TGTAGT | 0.887

Sequence | binding signal
TGCAGT | 0.779
TCGGGC | 0.505
GCCAGC | 0.722
TAGGCG | 0.618
TGTGTC | 0.742
GTTAGA | 0.729
CCCGAG | 0.771
TGGACG | 0.82
TAGAGG | 0.789
GCAAGA | 0.79
CAGCGT | 0.795
ACGCAA | 0.859
GTCGCC | 0.848
GGTTGA | 0.726
CGGGCA | 0.731
CTGAGT | 0.57
AGAGGG | 0.681
CGCGGG | 0.703
AGTAAG | 0.78

Quoted from the listing:
Value of ACGCAA under binding signal: 0.859
Value of GCAAGA under binding signal: 0.79
Value of CGCGGG under binding signal: 0.703
